{
  "sequences": {"note": "The chains behind the UniProt entries cited, without tags or fusion partners. Where a name states a change or a piece, a line headed by the entry shows the natural chain unless it says otherwise. A line that says so, or that is headed by a name, gives the form on record, which may keep a tag or linker.", "biotinylated bls-TSC2 (P49815-5, form named)": "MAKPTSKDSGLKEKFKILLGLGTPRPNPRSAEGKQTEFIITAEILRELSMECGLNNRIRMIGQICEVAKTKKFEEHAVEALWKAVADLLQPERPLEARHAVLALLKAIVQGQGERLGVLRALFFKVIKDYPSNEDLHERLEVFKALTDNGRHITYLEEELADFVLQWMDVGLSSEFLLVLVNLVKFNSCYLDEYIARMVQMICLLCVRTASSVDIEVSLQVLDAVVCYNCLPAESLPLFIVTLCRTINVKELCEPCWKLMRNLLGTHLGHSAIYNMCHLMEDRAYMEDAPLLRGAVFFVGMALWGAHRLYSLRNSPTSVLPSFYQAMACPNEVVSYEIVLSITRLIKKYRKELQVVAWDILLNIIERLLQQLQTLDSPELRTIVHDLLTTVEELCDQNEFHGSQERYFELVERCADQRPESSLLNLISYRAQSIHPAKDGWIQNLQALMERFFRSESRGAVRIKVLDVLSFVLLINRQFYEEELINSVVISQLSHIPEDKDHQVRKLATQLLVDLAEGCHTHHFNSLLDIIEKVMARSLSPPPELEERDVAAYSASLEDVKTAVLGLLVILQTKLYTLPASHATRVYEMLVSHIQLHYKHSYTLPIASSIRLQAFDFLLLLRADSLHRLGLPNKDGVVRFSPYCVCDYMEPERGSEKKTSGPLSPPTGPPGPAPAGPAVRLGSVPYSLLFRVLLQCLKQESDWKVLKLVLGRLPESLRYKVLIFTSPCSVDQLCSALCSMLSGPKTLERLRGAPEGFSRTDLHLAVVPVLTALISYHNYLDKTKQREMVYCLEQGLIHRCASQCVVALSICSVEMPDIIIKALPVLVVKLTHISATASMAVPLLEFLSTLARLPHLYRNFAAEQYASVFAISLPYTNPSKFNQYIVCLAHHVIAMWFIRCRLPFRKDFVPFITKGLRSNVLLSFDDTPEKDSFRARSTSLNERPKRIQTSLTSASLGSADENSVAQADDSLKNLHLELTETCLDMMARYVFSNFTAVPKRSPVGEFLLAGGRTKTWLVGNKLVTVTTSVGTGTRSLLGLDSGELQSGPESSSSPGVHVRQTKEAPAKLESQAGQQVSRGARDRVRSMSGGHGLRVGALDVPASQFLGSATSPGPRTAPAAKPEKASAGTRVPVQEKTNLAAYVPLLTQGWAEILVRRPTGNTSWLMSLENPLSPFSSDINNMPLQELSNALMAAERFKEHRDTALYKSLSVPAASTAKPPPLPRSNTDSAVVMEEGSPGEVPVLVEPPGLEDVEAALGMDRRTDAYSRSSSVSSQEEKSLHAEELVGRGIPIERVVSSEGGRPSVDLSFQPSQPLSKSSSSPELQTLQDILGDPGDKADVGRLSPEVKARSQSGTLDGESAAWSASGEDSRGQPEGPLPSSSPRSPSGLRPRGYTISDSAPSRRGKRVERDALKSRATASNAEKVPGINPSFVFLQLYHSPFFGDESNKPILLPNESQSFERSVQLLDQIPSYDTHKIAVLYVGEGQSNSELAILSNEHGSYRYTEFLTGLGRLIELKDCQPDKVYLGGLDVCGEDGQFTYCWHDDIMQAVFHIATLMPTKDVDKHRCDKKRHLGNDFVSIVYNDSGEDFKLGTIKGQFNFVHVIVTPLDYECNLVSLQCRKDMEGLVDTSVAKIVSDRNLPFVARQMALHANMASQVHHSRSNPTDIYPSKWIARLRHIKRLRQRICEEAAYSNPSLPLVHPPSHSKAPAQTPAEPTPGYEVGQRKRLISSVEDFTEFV", "UniProt P67775": "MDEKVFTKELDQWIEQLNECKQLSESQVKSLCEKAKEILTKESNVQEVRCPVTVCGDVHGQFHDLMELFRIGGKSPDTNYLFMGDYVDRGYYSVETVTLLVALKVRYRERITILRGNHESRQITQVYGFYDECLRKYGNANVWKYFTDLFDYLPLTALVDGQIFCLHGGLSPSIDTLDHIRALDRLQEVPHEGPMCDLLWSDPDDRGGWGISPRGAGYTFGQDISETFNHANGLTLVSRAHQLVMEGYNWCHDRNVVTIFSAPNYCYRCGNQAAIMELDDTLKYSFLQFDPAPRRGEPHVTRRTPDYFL", "UniProt P62714": "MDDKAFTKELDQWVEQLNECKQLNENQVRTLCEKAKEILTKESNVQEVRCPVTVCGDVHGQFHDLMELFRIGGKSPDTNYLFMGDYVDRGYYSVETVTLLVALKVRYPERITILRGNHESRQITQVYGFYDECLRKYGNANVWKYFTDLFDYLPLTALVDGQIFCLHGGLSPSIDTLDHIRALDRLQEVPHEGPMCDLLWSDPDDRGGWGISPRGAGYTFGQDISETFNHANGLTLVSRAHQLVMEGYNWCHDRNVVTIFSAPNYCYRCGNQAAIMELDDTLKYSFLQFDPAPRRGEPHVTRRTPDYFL"},
  "source": "paper PMC12405003",
  "molecules": {"B1": {"name": "Flag-tagged PP2A regulatory B subunit B55δ (PPP2R2D) (protein, UniProt Q66LE6 1-453)", "chain": "MAGAGGGGCPAGGNDFQWCFSQVKGAIDEDVAEADIISTVEFNYSGDLLATGDKGGRVVIFQREQENKSRPHSRGEYNVYSTFQSHEPEFDYLKSLEIEEKINKIRWLPQQNAAHFLLSTNDKTIKLWKISERDKRAEGYNLKDEDGRLRDPFRITALRVPILKPMDLMVEASPRRIFANAHTYHINSISVNSDHETYLSADDLRINLWHLEITDRSFNIVDIKPANMEELTEVITAAEFHPHQCNVFVYSSSKGTIRLCDMRSSALCDRHSKFFEEPEDPSSRSFFSEIISSISDVKFSHSGRYMMTRDYLSVKVWDLNMESRPVETHQVHEYLRSKLCSLYENDCIFDKFECCWNGSDSAIMTGSYNNFFRMFDRDTRRDVTLEASRESSKPRASLKPRKVCTGGKRRKDEISVDSLDFNKKILHTAWHPVDNVIAVAATNNLYIFQDKIN"}},
  "note": "No constants are given. Whether binding was seen depends on the method and setting. For some of these results: Binding seen in cells or lysates may run through a third protein. Some binding calls cover weakened binding; strength is not graded here. For some of these results: Tags and fused reporters may be left off the sequences shown.",
  "data": [
    {"biological_target": "Flag-TSC2 (1740 aa) (human) (UniProt P49815)", "experiment": "co-IP; HEK293 lysates in CoIP lysis buffer (20 mM Tris-HCl pH 7.5, 1% Triton X-100, 10% glycerol, 137 mM NaCl, 2 mM EDTA); anti-Flag M2 antibody for 5 h at 4°C, protein G Sepharose beads, four washes; immunoblot", "values": [
      {"molecule": "Flag-TSC2 (1740 aa) (from UniProt P49815-5 1-1740)", "binding": "binds"},
      {"molecule": "endogenous PP2A-Cα (from UniProt P67775 1-309)", "binding": "binds"}
    ]},
    {"biological_target": "biotinylated bls-TSC2 (human) (UniProt P49815)", "experiment": "AlphaScreen or HTRF; biotinylated bls-TSC2 (1 ul) and Flag-tagged protein (1 ul), both cell-free synthesized; streptavidin donor beads, anti-Flag M2 antibody and protein A acceptor beads; 100 mM Tris-HCl pH 8.0, 100 mM NaCl, 1 mg/ml BSA, 0.01% Tween-20; 24 h at 25°C", "values": [
      {"molecule": "Flag-tagged PP2A regulatory B subunit B56δ (PPP2R5D) (from UniProt Q14738-1 1-602)", "binding": "binds"},
      {"molecule": "Flag-tagged PP2A-Cβ (PPP2CB) (from UniProt P62714 1-309)", "binding": "binds"},
      {"molecule": "Flag-tagged PP2A regulatory B subunit B56β (PPP2R5B) (from UniProt Q15173-1 1-497)", "binding": "binds"},
      {"molecule": "Flag-tagged PP2A-Cα (PPP2CA) (from UniProt P67775-1 1-309)", "binding": "binds"},
      {"molecule": "B1", "binding": "binds"}
    ]}
  ]
}
